# Measurements from PubChem BioAssay AID590 (National Center for Advancing Translational Sciences (NCATS), 2007).
# The campaign covered roughly 59,000 compounds. About 6,500 (11%) were called active. Inconclusive results, whose numbers are uncertain, are shown with a selection of clear calls. Cut-off read from the data, not from the text of the source: active = max dye-equivalent concentration above about 10 nM; inconclusive = mostly about 1.1 nM to 9.6 nM; inactive = weaker than that.
# Experiment: qHTS Assay for Spectroscopic Profiling in A350 Spectral Region
# Conditions: Compound autofluorescence, 340/450 nm, Alexa 350 dye-equivalents; stronger effect = higher value
row,SMILES,max dye-equivalent concentration
1,COc1cccc(-c2nc3ccc(O)cc3c(=O)o2)c1,inconclusive: 8.6 nM
2,O=C(Nc1ccccc1)N(CCCN1CCOCC1)Cc1cc2cc3c(cc2[nH]c1=O)OCCO3,active: 370 nM
3,Cc1ccc2[nH]c3c(=O)n(CCCN4CCOCC4)cnc3c2c1,inconclusive: 1.5 nM
4,COc1cc(NC(=O)c2noc3c2CCC3)c(OC)cc1Cl,active: 17 nM
5,CCNc1ncc2nc(-c3ccc(Cl)cc3)c(=O)n(-c3ccccc3)c2n1,active: 90 nM
6,Cc1cc2n(n1)C(c1ccc(O)cc1)Nc1ccccc1-2 (stereo not given),active: 31 nM
7,COc1ccc(NC(=O)c2cnc(C)cn2)cc1-n1cnnn1,inconclusive: 4.8 nM
8,C[N+](C)(C)CCOC(N)=O,inconclusive: 1.2 nM
9,COc1ccc(N2CCN(CCNC(=O)CCCn3c(=O)[nH]c4cc(Cl)ccc4c3=O)CC2)cc1,inactive
10,CCCCCNC(=O)CCCCn1c(=O)[nH]c2cc(OCC)c(OCC)cc2c1=O,inconclusive: 2 nM
11,Cc1nc2sccn2c(=O)c1CCN1CCC(=C(c2ccc(F)cc2)c2ccc(F)cc2)CC1,inconclusive: 1.5 nM
12,Cc1cnc(CNc2ncnc3ccc(-c4c(C)noc4C)cc23)cn1,inconclusive: 1.2 nM
13,CCn1cc(Br)c(C(=O)NC(C)c2ccccc2)n1 (stereo not given),inconclusive: 3.4 nM
14,COc1cc2c(cc1OC)C(c1ccc(N(C)C)cc1)CC(=O)N2 (stereo not given),inconclusive: 2.9 nM
15,Cc1occc1C(=O)Nc1ccc2c(c1)CCC2,inconclusive: 1.2 nM
16,CCOC(=O)c1c(NC(=O)CSc2n[nH]c(-c3ccco3)n2)sc(C)c1C,inactive
17,CCCn1c2c(c(O)c(C(=O)Nc3ccc(OC)cc3)c1=O)CCCC2,active: 41 nM
18,Cc1cccc(N(C)S(=O)(=O)c2ccc3c(c2)CCC(=O)N3)c1,inconclusive: 1.2 nM
19,COc1cc2[nH]c(=O)n(CCC(=O)NC3CCCC3)c(=O)c2cc1OC,inconclusive: 3.2 nM
20,COc1ccc(C2C(C(=O)N3CCOCC3)c3ccccc3C(=O)N2c2ccc(OC)cc2)cc1 (stereo not given),inconclusive: 3.6 nM
21,CC(=O)[C@H]1CC[C@H]2[C@@H]3C=CC4=CC(=O)CC[C@@]4(C)[C@H]3CC[C@]12C,inconclusive: 2.5 nM
22,Nc1ccccc1NC(=O)c1ccccc1N,active: 130 nM
23,Cc1noc(C)c1C(=O)N1CCC2(CCCN(c3ccccn3)C2)CC1,inactive
24,c1ccc2nc(CC[C@@H]3CCCCN3)ccc2c1,inactive
25,CN(C)c1ncc2ncc(=O)n(C[C@H]3CCCO3)c2n1,inconclusive: 10 nM

# By substructure, those above containing sulfur.
row,SMILES,max dye-equivalent concentration
11,Cc1nc2sccn2c(=O)c1CCN1CCC(=C(c2ccc(F)cc2)c2ccc(F)cc2)CC1,inconclusive: 1.5 nM
16,CCOC(=O)c1c(NC(=O)CSc2n[nH]c(-c3ccco3)n2)sc(C)c1C,inactive
18,Cc1cccc(N(C)S(=O)(=O)c2ccc3c(c2)CCC(=O)N3)c1,inconclusive: 1.2 nM
